Results: the supplement of paper PMC4604168 (melanoma cell lines)
The list shows a part of the results. Many values rest on one well or one pass, so single values are uncertain.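 Cells were imaged in 1,536-well plates, and nuclei stained with an antibody against cleaved PARP were counted against all DNA-stained nuclei to give the apoptosis fraction. Screening doses were chosen to leave most cells alive, and resting and induced cleaved-PARP levels differ strongly between cell lines.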

Assays:
Assay in all cases: cleaved PARP positive nuclei fraction relative to DMSO control; melanoma cells; higher = more apoptosis
Conditions in all cases: library dose: low library concentration; 72 h
501Mel = test system: 501Mel
A101D = test system: A101D
A2058 = test system: A2058
C32 = test system: C32
CBRC008 = test system: CBRC008 (line from a melanoma biopsy)
CBRC014 = test system: CBRC014 (line from a melanoma biopsy)
CBRC016 = test system: CBRC016 (line from a melanoma biopsy)
CBRC017 = test system: CBRC017 (line from a melanoma biopsy)
COLO792 = test system: COLO792
COLO800 = test system: COLO800
COLO829 = test system: COLO829
G361 = test system: G361
IPC-298 = test system: IPC-298
IST-MEL1 = test system: IST-MEL1
LB2518-MEL = test system: LB2518-MEL
LOXIMVI = test system: LOXIMVI
A375 = test system: A375
CBRC013 = test system: CBRC013 (line from a melanoma biopsy)
MEL-HO = test system: MEL-HO
CBRC034 = test system: CBRC034 (line from a melanoma biopsy)

Row | Structure (SMILES) | cleaved PARP positive nuclei fraction (501Mel) | cleaved PARP positive nuclei fraction (A101D) | cleaved PARP positive nuclei fraction (A2058) | cleaved PARP positive nuclei fraction (C32) | cleaved PARP positive nuclei fraction (CBRC008) | cleaved PARP positive nuclei fraction (CBRC014) | cleaved PARP positive nuclei fraction (CBRC016) | cleaved PARP positive nuclei fraction (CBRC017) | cleaved PARP positive nuclei fraction (COLO792) | cleaved PARP positive nuclei fraction (COLO800) | cleaved PARP positive nuclei fraction (COLO829) | cleaved PARP positive nuclei fraction (G361) | cleaved PARP positive nuclei fraction (IPC-298) | cleaved PARP positive nuclei fraction (IST-MEL1) | cleaved PARP positive nuclei fraction (LB2518-MEL) | cleaved PARP positive nuclei fraction (LOXIMVI) | cleaved PARP positive nuclei fraction (A375) | cleaved PARP positive nuclei fraction (CBRC013) | cleaved PARP positive nuclei fraction (MEL-HO) | cleaved PARP positive nuclei fraction (CBRC034)
1 | Nc1ncn([C@H]2C[C@H](O)[C@@H](CO)O2)c(=O)n1 [decitabine] + O=S(=O)(c1ccccc1)N(CC(F)(F)F)c1ccc(C(O)(C(F)(F)F)C(F)(F)F)cc1 [T0901317] (first compound 0.1 µM, partner dose 1.4 µM) | 67.6% | 54.4% | 54.4% | 75.9% | 60.7% | 101% | 125% | 111% | 77.6% | 113% | 91.3% | 78.6% | 307% | 111% | 145% | 166% | – | – | – | –
2 | C[C@@H](Oc1cc(-c2cnn(C3CCNCC3)c2)cnc1N)c1c(Cl)ccc(F)c1Cl [Crizotinib] + O=C(Nc1cccc(Cl)c1)Nc1ncc(CCNc2ncnc3ccsc23)s1 [SNS314] (first compound 0.2 µM, partner dose 0.0008 µM) | – | 74.1% | 140% | 133% | 160% | 84.1% | 66.3% | 111% | 63.1% | 210% | 98.8% | 117% | 281% | 53.4% | – | 66.5% | 198% | 118% | 131% | –
3 | CO[C@H]1C[C@@H]2CC[C@@H](C)[C@@](O)(O2)C(=O)C(=O)N2CCCC[C@H]2C(=O)O[C@H]([C@H](C)C[C@@H]2CC[C@@H](OCCO)[C@H](OC)C2)CC(=O)[C@H](C)/C=C(\C)[C@@H](O)[C@@H](OC)C(=O)[C@H](C)C[C@H](C)/C=C/C=C/C=C/1C [everolimus] + Cc1ccc(NC(=O)c2cccc(N(C)C)c2)cc1NC(=O)c1ccc(O)cc1 [ZM336372] (first compound 0.02 µM, partner dose 2 µM) | – | 50.6% | 185% | 215% | 368% | 110% | 167% | 92.6% | 102% | 81.5% | 123% | 165% | 103% | 118% | – | 66.3% | 220% | 57% | 117% | –
4 | CNC(=O)c1cc(Oc2ccc(NC(=O)Nc3ccc(Cl)c(C(F)(F)F)c3)cc2)ccn1 [sorafenib] + Oc1cc(-c2nc(-c3ccccc3)[nH]c2-c2ccncc2)ccc1Cl [L779450] (first compound 0.4 µM, partner dose 0.2 µM) | 106% | 20.7% | 40.1% | 69.4% | 315% | 113% | 26.9% | 119% | 156% | 68.5% | 66.6% | 154% | 98.2% | 116% | 65.9% | 76.1% | – | – | – | –
5 | Cn1c(=O)n(-c2ccc(C(C)(C)C#N)cc2)c2c3cc(-c4cnc5ccccc5c4)ccc3ncc21 + c1cc(-c2cnn3cc(-c4ccc(OCCN5CCCCC5)cc4)cnc23)ccn1 [Dorsomorphin] (first compound 0.004 µM, partner dose 0.4 µM) | 101% | 30.1% | 166% | 104% | 156% | 79.2% | 41.7% | 102% | 137% | 105% | 91.2% | 115% | 143% | 169% | 120% | 77.4% | – | – | – | –
6 | CC(C)C[C@H](NC(=O)[C@H](Cc1ccccc1)NC(=O)c1cnccn1)B(O)O [Bortezomib] + COc1cc2ncnc(Nc3ccc(Oc4ccccc4)cc3)c2cc1OC [SrcI1] (first compound 0.001 µM, partner dose 2 µM) | 139% | 223% | 69.6% | 94.7% | 2460% | 919% | 412% | 495% | 59.4% | 30.5% | 243% | 2570% | 74.6% | 162% | 188% | 71.5% | – | – | – | –
7 | CCCS(=O)(=O)Nc1ccc(F)c(C(=O)c2c[nH]c3ncc(Cl)cc23)c1F + N#Cc1c(O)c2c(-c3ccc(-c4ccccc4O)cc3)csc2[nH]c1=O [A769662] (first compound 0.08 µM, partner dose 2 µM) | 208% | 38.9% | 99.4% | 370% | 62.3% | 114% | 54.3% | 71.3% | 43.7% | 99.2% | 120% | 77.8% | 398% | 146% | 67.6% | 59.7% | – | – | – | –
8 | Cc1cc(Nc2cc(N3CCN(C)CC3)nc(/C=C/c3ccccc3)n2)n[nH]1 + NCC(=O)Nc1ccc(-n2nc(C(F)(F)F)cc2-c2ccc3c(ccc4ccccc43)c2)cc1 [OSU03012] (first compound 0.04 µM, partner dose 1 µM) | – | 79% | 67.1% | 89.6% | 106% | 253% | 219% | 96.3% | 144% | 102% | 146% | 87.8% | 302% | 152% | – | 197% | 1140% | 170% | 70.2% | –
9 | Nc1nc(F)nc2c1ncn2[C@@H]1O[C@H](CO)[C@@H](O)[C@@H]1O [fludarabine] + COC(=O)c1sccc1S(=O)(=O)Nc1ccc(Nc2ccccc2)cc1OC [GSK0660] (first compound 0.2 µM, partner dose 1 µM) | 545% | 54.1% | 57% | 83.1% | 82.8% | 92% | 92.7% | 75.2% | 112% | 64.1% | 114% | 166% | 135% | 34.6% | 66.2% | 138% | – | – | – | –
10 | Cn1c(=O)n(-c2ccc(C(C)(C)C#N)cc2)c2c3cc(-c4cnc5ccccc5c4)ccc3ncc21 + CN(NC(=O)CC(=O)NN(C)C(=S)c1ccccc1)C(=S)c1ccccc1 [STA4783] (first compound 0.004 µM, partner dose 0.006 µM) | – | 103% | 141% | 230% | 826% | 485% | 119% | 143% | 208% | 125% | 72.5% | 137% | 90.8% | 118% | – | 37.1% | 1300% | 74.6% | 79.2% | –
11 | O=C(O)[C@@H]1[O][Sb](=[O])([O][Sb]2(=[O])[O][C@H]([C@H](O)CO)[C@H](O)[C@H](C(=O)O)[O]2)[O][C@H]([C@H](O)CO)[C@@H]1O (stereo partly specified) [stibogluconate] + Oc1cc(-c2nc(-c3ccccc3)[nH]c2-c2ccncc2)ccc1Cl [L779450] (first compound 2 µM, partner dose 0.2 µM) | 92.2% | 30.5% | 161% | 202% | 63.6% | 108% | 28.8% | 92.5% | 55.6% | 39.6% | 116% | 111% | 50.4% | 211% | 168% | 82% | – | – | – | –
12 | CS(=O)(=O)CCNCc1ccc(-c2ccc3ncnc(Nc4ccc(OCc5cccc(F)c5)c(Cl)c4)c3c2)o1 [lapatinib] + COc1ccc(-c2ccc3c(N4CCOCC4)nc(N4C[C@@H](C)O[C@@H](C)C4)nc3n2)cc1CO [KU0063794] (first compound 0.8 µM, partner dose 0.02 µM) | 65.9% | 55.1% | 152% | 95.7% | 61.1% | 121% | 41.3% | 93.4% | 70.2% | 83.2% | 87.3% | 63.2% | 69.2% | 160% | 71.1% | 15.3% | – | – | – | –
13 | C=C(c1ccc(C(=O)O)cc1)c1cc2c(cc1C)C(C)(C)CCC2(C)C [Bexarotene] + C[C@@H]1CCN(C(=O)CC#N)C[C@@H]1N(C)c1ncnc2[nH]ccc12 [CP690550] (first compound 2 µM, partner dose 1 µM) | – | 88.6% | 111% | 88.5% | 289% | 106% | 370% | 147% | 83.9% | 110% | 71% | 67.7% | 92.8% | 99.8% | – | 43.9% | 185% | 136% | 34.2% | –
14 | C[C@@H](Oc1cc(-c2cnn(C3CCNCC3)c2)cnc1N)c1c(Cl)ccc(F)c1Cl [Crizotinib] + COc1cc(Nc2ncc(F)c(Nc3ccc4c(n3)NC(=O)C(C)(C)O4)n2)cc(OC)c1OC [Tamatinib] (first compound 0.2 µM, partner dose 0.4 µM) | – | 105% | 109% | 192% | 216% | 82.7% | 39% | 120% | 108% | 64.4% | 91.7% | 106% | 126% | 233% | – | 86.1% | 205% | 125% | 141% | –
15 | CCCS(=O)(=O)Nc1ccc(F)c(C(=O)c2c[nH]c3ncc(Cl)cc23)c1F + NC(=O)Nc1cc(-c2cccc(F)c2)sc1C(=O)N[C@H]1CCCNC1 [AZD7762] (first compound 0.08 µM, partner dose 0.02 µM) | – | 93.8% | 72.2% | 168% | 24.2% | 105% | 118% | 91.6% | 156% | 152% | 49.4% | 91.1% | 120% | 163% | – | 74.3% | 879% | 127% | 168% | –
16 | Nc1ncn([C@H]2C[C@H](O)[C@@H](CO)O2)c(=O)n1 [decitabine] + COc1ccc2c(c1)CCC1C2CCC2(C)C(NCCCCCCN3C(=O)C=CC3=O)CCC12 [U73122] (first compound 0.1 µM, partner dose 0.4 µM) | 74.8% | 26.5% | 17.1% | 35.1% | 81.3% | 99.1% | 122% | 123% | 60.4% | 95.6% | 151% | 132% | 132% | 119% | 93.1% | 218% | – | – | – | –
17 | CC(C)C[C@H](NC(=O)[C@H](Cc1ccccc1)NC(=O)c1cnccn1)B(O)O [Bortezomib] + CCc1ccc(CCOc2ccc(CC3SC(=O)NC3=O)cc2)nc1 [pioglitazone] (first compound 0.001 µM, partner dose 2 µM) | 105% | 78.5% | 111% | 145% | 1010% | 594% | 219% | 180% | 101% | 44.8% | 211% | 1990% | 134% | 223% | 254% | 134% | – | – | – | –
18 | CS(=O)(=O)CCNCc1ccc(-c2ccc3ncnc(Nc4ccc(OCc5cccc(F)c5)c(Cl)c4)c3c2)o1 [lapatinib] + Nc1cccc2c1CN(C1CCC(=O)NC1=O)C2=O [lenalidomide] (first compound 0.8 µM, partner dose 1 µM) | – | 89.4% | 72.9% | 300% | 48.8% | 101% | 158% | 96.7% | 30.6% | 56.7% | 82.4% | 86.1% | 80.4% | 86.1% | – | 198% | 47.9% | – | 139% | 89.5%

An excerpt taken from the entries so far, as a working copy:
Row | Structure (SMILES) | cleaved PARP positive nuclei fraction (501Mel) | cleaved PARP positive nuclei fraction (A101D) | cleaved PARP positive nuclei fraction (A2058) | cleaved PARP positive nuclei fraction (C32) | cleaved PARP positive nuclei fraction (CBRC008) | cleaved PARP positive nuclei fraction (CBRC014) | cleaved PARP positive nuclei fraction (CBRC016) | cleaved PARP positive nuclei fraction (CBRC017) | cleaved PARP positive nuclei fraction (COLO792) | cleaved PARP positive nuclei fraction (COLO800) | cleaved PARP positive nuclei fraction (COLO829) | cleaved PARP positive nuclei fraction (G361) | cleaved PARP positive nuclei fraction (IPC-298) | cleaved PARP positive nuclei fraction (IST-MEL1) | cleaved PARP positive nuclei fraction (LB2518-MEL) | cleaved PARP positive nuclei fraction (LOXIMVI) | cleaved PARP positive nuclei fraction (A375) | cleaved PARP positive nuclei fraction (CBRC013) | cleaved PARP positive nuclei fraction (MEL-HO) | cleaved PARP positive nuclei fraction (CBRC034)
10 | Cn1c(=O)n(-c2ccc(C(C)(C)C#N)cc2)c2c3cc(-c4cnc5ccccc5c4)ccc3ncc21 + CN(NC(=O)CC(=O)NN(C)C(=S)c1ccccc1)C(=S)c1ccccc1 [STA4783] (first compound 0.004 µM, partner dose 0.006 µM) | – | 103% | 141% | 230% | 826% | 485% | 119% | 143% | 208% | 125% | 72.5% | 137% | 90.8% | 118% | – | 37.1% | 1300% | 74.6% | 79.2% | –
11 | O=C(O)[C@@H]1[O][Sb](=[O])([O][Sb]2(=[O])[O][C@H]([C@H](O)CO)[C@H](O)[C@H](C(=O)O)[O]2)[O][C@H]([C@H](O)CO)[C@@H]1O (stereo partly specified) [stibogluconate] + Oc1cc(-c2nc(-c3ccccc3)[nH]c2-c2ccncc2)ccc1Cl [L779450] (first compound 2 µM, partner dose 0.2 µM) | 92.2% | 30.5% | 161% | 202% | 63.6% | 108% | 28.8% | 92.5% | 55.6% | 39.6% | 116% | 111% | 50.4% | 211% | 168% | 82% | – | – | – | –
